In US12297165B2, “Oligothioetheramides (oligoteas) as anti-microbial and anti-bacterial agents” (Cornell University, priority 2017, dated 2025):
Some entries share one result that the patent states for a list of compounds. At least one structure is not confirmed: it was looked up by name or label, or the drawing left a doubt.

Tests used:
Bacillus subtilis = experiment: Minimum inhibitory concentration (MIC) assay, B. subtilis; assay type: cell-based
Method: Biological Assays: Minimum inhibitory concentration (MIC) assay: A single bacterial colony (Bacillus subtilis (B. subtilis) or methicillin-resistant Staphylococcus aureus (MRSA)) was selected and incubated in media (Luria Broth (LB) for B. subtilis or Tryptic Soy Broth (TSB) for MRSA) at 37° C. overnight. This was sub-cultured in media and incubated at 37° C. until the OD600 was approximately 0.5 (2.5-3.5-hour incubation). The subculture was diluted with media to an OD600 of 0.001. Diluted subculture and 1 mM stocks of compounds to be tested were added to a clear 96-well plate, and serially diluted by a factor of 0.5. The well plate was incubated overnight and the absorbance was measured at 600 nm using the TECAN. To determine the MIC in presence of serum, assays were repeated using media with 20% heat-inactivated mouse serum or 20% fetal bovine serum. […] The MIC50 was calculated using a 4PL sigmoidal nonlinear regression on Prism. The MIC100 was calculated as the first point below 10% of the maximum.
The MIC of PEG24-LL-PDT4G against B. subtilis was compared with the MIC of unmodified PDT-4G. Both compounds were pre-incubated with B. subtilis supernatant for 0, 4, or 24 hours before the MIC assay to test cleavage kinetics (FIG. 53).

E. coli = experiment: Minimum inhibitory concentration (MIC) assay, E. coli; assay type: cell-based

SMILES: C=CCN(CCNC(=N)N)C(=O)CCSCCCCSCCCN(CCNC(=N)N)C(=O)CCSCCCCSCCCN(CCNC(=N)N)C(=O)CCSCCCCSCCCN(CCNC(=N)N)C(=O)CCSCCCCSCCCN(CCNC(=N)N)C(=O)CCSCCCCSCCCN [BDT-5G]
- compound concentration showing toxicity against B. subtilis (Bacillus subtilis): ≤ 10 M
- compound concentration showing toxicity against E. coli (E. coli): ≤ 10 µM
